{"sequences": {"note": "Chains of the proteins cited; added tags and fusions are not shown.", "UniProt P28482, whole entry": "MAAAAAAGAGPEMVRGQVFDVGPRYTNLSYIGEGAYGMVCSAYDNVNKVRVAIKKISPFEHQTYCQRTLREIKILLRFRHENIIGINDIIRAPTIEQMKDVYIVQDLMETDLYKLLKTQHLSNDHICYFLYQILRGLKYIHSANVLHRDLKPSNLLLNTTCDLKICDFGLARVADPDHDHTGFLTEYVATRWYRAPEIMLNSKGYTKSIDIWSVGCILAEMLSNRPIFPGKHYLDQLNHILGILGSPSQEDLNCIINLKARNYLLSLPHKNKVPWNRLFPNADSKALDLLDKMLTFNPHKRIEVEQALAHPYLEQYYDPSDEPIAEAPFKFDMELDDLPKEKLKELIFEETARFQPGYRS"}, "source": "the supplement of paper PMC12823440", "about": "“Inhibitors supercharge kinase turnover through native proteolytic circuits” (Nature, 2025)", "note": "This is one part of the list. Hit calls seldom repeat between salt and free forms of one compound.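 Kinases were expressed as nanoluciferase fusions in K562 cells and luminescence was read every 4 h between 2 and 18 h as percent of control, DMSO set to 100% and a positive control to 0%. A time point counts as decreased when the signal drops significantly (2 sigma). The hit call is the authors' own, does not follow from the count of time points alone, and its rule is not shown.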", "data": [{"biological_target": "MAPK1 (UniProt P28482)", "test": "kinase-Nluc reporter destabilization hit call (1 = scored as downregulated) (binary); higher = compound decreases kinase abundance", "conditions": "K562; 2-18 h", "values": [{"compound": "Cc1cccc(-c2[nH]c(C(C)(C)C)nc2-c2ccc3c(c2)OCO3)n1", "note": "(2.5 µM)", "kinase-Nluc reporter destabilization hit call": "inactive: 0"}, {"compound": "Cc1cccc(Cn2nc(C)c3c(NC(=O)c4csc5c(N)ncnc45)cccc32)n1", "note": "(10 µM)", "kinase-Nluc reporter destabilization hit call": "inactive: 0"}, {"compound": "CC[C@@H]1CN(C(=O)NCC(F)(F)F)C[C@@H]1c1cnc2cnc3[nH]ccc3n12", "note": "[Upadacitinib] (10 µM)", "kinase-Nluc reporter destabilization hit call": "inactive: 0"}, {"compound": "CNS(=O)(=O)C[C@H]1CC[C@H](N(C)c2[nH]cnc3nccc2-3)CC1", "note": "[Oclacitinib (maleate)] (10 µM)", "kinase-Nluc reporter destabilization hit call": "inactive: 0"}, {"compound": "COc1cc(-c2cnc(N)c(-c3ccc(NC(=O)c4cn(CC5CCOCC5)cc(-c5ccc(C)cn5)c4=O)cc3F)c2)ccc1OC[C@H]1COCCO1", "note": "[DS-1205b (free base)] (10 µM)", "kinase-Nluc reporter destabilization hit call": "inactive: 0"}]}]}
